These are yes or no findings as the source states them, for the method shown. In cells and extracts the contact can be indirect. Some entries that bind do so weakly or less than the wild type.

By UniProt entry, the sequences of proteins in these tests, tags left out.
UniProt P00520: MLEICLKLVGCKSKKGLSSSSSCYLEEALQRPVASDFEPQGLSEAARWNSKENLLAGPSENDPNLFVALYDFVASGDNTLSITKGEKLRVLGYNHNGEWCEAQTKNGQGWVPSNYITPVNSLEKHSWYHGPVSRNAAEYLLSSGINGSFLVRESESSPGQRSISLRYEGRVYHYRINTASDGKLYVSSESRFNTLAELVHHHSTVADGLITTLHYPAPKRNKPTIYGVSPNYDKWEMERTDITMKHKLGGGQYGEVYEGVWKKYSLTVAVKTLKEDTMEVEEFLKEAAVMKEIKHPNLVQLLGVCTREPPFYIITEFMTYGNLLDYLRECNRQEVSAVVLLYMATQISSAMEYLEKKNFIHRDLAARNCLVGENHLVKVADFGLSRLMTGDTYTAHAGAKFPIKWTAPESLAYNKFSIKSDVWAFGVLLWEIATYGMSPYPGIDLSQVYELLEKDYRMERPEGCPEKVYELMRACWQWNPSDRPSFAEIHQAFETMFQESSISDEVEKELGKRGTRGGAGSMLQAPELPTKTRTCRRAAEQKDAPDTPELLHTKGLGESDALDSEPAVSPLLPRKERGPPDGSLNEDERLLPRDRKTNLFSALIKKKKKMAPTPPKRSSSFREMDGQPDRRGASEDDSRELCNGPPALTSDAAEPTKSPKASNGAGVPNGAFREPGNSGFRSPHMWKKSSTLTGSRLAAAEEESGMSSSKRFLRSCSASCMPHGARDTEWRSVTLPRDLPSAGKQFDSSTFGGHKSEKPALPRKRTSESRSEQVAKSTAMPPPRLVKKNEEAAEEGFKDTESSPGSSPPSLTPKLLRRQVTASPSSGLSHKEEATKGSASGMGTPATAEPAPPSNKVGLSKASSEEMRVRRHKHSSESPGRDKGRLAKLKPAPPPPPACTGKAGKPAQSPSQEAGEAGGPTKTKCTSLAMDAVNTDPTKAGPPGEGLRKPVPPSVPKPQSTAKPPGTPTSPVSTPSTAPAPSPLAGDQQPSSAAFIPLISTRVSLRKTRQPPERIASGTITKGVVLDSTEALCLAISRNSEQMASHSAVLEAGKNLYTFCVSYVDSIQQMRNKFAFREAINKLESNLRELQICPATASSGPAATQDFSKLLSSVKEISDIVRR

These results are taken from patent publication US20160103133A1.

Assay [1] addresses Abl (endogenous, mouse intestinal tumors) (mouse) (UniProt P00520). Nature of the assay: co-immunoprecipitation from tumor lysates, western blotting with anti-Abl and anti-Dab1.
The target is the same in assay [2]. Nature of the assay: co-immunoprecipitation from tumor lysates (FIG. 10B).

B1: Dab1 (endogenous, mouse intestinal tumors) (protein, UniProt P97318 1-588, looked up)
chain: MSTETELQVAVKTSAKKDSRKKGQDRSEATLIKRFKGEGVRYKAKLIGIDEVSAARGDKLCQDSMMKLKGVVAGARSKGEHKQKIFLTISFGGIKIFDEKTGALQHHHAVHEISYIAKDITDHRAFGYVCGKEGNHRFVAIKTAQAAEPVILDLRDLFQLIYELKQREELEKKAQKDKQCEQAVYQTILEEDVEDPVYQYIVFEAGHEPIRDPETEENIYQVPTSQKKEGVYDVPKSQPNSQPLEDFESRFAAATPNRNLSMDFDELLEATKVSAVTQLELFGDMSTPPDITSPPTPATPGDAFLPSSSQTLPGSADVFGSMSFGTAAVPSGYVAMGAVLPSFWGQQPLVQQQIAMGAQPPVAQVIPGAQPIAWGQPGLFPATQQAWPTVAGQFPPAAFMPTQTVMPLAAAMFQGPLTPLATVPGTNDSARSSPQSDKPRQKMGKESFKDFQMVQPPPVPSRKPDQPSLTCTSEAFSSYFNKVGVAQDTDDCDDFDISQLNLTPVTSTTPSTNSPPTPAPRQSSPSKSSASHVSDPTADDIFEEGFESPSKSEEQEAPDGSQASSTSDPFGEPSGEPSGDNISPQDGS
On to B1, for which the binding entry in assay [1] and in assay [2] was “binds” throughout.
